Measured values as given in publication PMC6562232.
These are yes or no findings as the source states them, for the method shown. Binding seen in cells or lysates may run through a third protein. A result given as binding can be weak or reduced; the word gives no strength.

By UniProt entry, the sequences of proteins in these tests, tags left out. Where a name states a change or a piece, a line headed by the entry shows the natural chain unless it says otherwise.
UniProt A0A644F7M7: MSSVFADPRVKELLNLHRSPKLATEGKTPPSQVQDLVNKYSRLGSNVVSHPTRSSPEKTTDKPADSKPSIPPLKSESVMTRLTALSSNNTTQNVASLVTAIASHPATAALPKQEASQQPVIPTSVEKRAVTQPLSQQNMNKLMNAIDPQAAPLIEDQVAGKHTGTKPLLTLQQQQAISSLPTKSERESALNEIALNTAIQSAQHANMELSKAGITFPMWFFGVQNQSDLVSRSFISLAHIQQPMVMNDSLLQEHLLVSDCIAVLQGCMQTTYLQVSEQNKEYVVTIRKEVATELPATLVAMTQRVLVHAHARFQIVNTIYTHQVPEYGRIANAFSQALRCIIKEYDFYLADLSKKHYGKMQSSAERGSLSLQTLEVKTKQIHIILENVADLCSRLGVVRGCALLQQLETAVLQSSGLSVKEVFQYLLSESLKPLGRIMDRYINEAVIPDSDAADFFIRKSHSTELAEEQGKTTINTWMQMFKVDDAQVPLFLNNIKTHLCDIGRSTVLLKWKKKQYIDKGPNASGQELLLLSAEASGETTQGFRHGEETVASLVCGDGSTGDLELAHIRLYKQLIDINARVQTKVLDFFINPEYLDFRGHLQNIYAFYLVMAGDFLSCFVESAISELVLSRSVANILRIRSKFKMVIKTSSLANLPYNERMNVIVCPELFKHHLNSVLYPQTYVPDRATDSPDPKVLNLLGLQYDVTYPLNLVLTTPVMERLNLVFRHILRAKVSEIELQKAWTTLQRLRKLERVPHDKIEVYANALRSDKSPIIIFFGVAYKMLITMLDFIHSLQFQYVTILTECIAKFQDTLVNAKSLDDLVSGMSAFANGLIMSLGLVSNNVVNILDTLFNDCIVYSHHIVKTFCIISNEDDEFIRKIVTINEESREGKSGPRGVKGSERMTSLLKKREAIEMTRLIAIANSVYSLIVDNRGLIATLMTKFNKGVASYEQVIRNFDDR
UniProt A8BFK8: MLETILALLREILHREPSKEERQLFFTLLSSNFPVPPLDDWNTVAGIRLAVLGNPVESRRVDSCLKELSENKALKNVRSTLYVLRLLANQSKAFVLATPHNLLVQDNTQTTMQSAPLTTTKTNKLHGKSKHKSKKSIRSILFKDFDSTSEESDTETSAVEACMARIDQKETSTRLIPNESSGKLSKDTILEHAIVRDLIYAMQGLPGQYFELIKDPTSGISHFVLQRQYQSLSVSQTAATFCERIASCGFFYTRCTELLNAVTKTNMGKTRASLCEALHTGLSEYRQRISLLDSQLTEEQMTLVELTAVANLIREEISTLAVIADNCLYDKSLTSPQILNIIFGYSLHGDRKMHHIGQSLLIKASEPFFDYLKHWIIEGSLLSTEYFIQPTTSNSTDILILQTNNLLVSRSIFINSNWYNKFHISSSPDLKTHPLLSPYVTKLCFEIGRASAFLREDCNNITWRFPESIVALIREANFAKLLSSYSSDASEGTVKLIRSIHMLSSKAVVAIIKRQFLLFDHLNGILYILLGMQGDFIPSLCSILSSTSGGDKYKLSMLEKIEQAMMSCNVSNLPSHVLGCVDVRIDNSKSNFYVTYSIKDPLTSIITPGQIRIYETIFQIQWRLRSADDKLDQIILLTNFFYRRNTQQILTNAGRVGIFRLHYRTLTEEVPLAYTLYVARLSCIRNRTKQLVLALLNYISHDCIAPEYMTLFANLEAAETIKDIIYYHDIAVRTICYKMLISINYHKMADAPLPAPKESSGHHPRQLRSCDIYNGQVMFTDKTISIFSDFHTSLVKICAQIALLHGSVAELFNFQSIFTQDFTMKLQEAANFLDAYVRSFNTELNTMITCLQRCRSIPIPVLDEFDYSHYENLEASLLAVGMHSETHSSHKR

Biological target: HA-tagged Glγ-tubulin expressed in transgenic G. lamblia (pGlγ-tubulinHAX3.pac) (Giardia lamblia)
Experiment: co-IP; lysates of G. lamblia expressing HA-tagged Glγ-tubulin (50 mM Tris-HCl pH 7.4, 150 mM NaCl, called cross-linking buffer), 1 mg lysate with anti-HA agarose beads overnight at 4°C, washed with 1% Triton X-100; western blot; control anti-mouse IgG Sepharose beads

Substance	binding
G. lamblia γ-tubulin complex protein 2 (GlGCP2), endogenous (from UniProt A0A644F7M7)	binds
G. lamblia γ-tubulin complex protein 3 (GlGCP3), endogenous (from UniProt A8BFK8)	binds
